# Assay results

The results are deposited in PubChem (AID1224904; Broad Institute, 2016).

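Control-channel Italica luciferase signal in doxycycline-induced 293T-iDUX4 cells, given as percent activity after a 24-hour treatment.
The test concentration is not given here.
Percent change in the Italica control signal; more negative values mean stronger inhibition, which points to nonspecific, tet-on or cytotoxic effects.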

Values are in %.
Common to all entries: measured here: Italica tet-on control reporter.
Part of the compounds only, not a random draw; the main read-out is not listed here.

With O=C(C[C@H]1CC[C@@H]2[C@H](COC[C@H](O)CN2C(=O)c2ccccc2)O1)Nc1ccc(-c2ccccc2)cc1 the assay gave activity change -24.41%.
With Cc1cccc(S(=O)(=O)N2CC[C@@H]3[C@H]2c2cc(-c4cccc(C#N)c4)ccc2N(C)[C@H]3CO)c1 the assay gave activity change -16.14%.
With O=C(C[C@H]1CC[C@H]2[C@@H](COC[C@H](O)CN2S(=O)(=O)c2ccc(F)cc2)O1)NCc1ccc(Cl)c(Cl)c1 the assay gave activity change -22.24%.
With CN1C(=O)c2cc(NS(=O)(=O)c3ccc(Cl)cc3)ccc2OC[C@@H]2O[C@H](CC(=O)N3CCc4ccccc4C3)CC[C@@H]21 the assay gave activity change -45.51%.
With O=C(C[C@@H]1CC[C@@H]2[C@H](COC[C@H](O)CN2S(=O)(=O)c2ccc(Oc3ccccc3)cc2)O1)NCCN1CCCCC1 the assay gave activity change -36.59%.
With Cc1ccc(S(=O)(=O)N2CC[C@H]3[C@@H](CO)N(C)c4ccc(-c5cccc(C#N)c5)cc4[C@H]32)cc1 the assay gave activity change -31.75%.
With COCC(=O)N1CC2(C1)CN(Cc1ccccc1F)[C@@H](CO)c1[nH]c3cc(OC)ccc3c12 the assay gave activity change -24.34%.
With O=C(C[C@@H]1CC[C@H]2[C@@H](COC[C@@H](O)CN2CCc2ccccc2)O1)N1CCC(Cc2ccccc2)CC1 the assay gave activity change -34.54%.
With O=C(C[C@H]1CC[C@H]2[C@@H](COC[C@@H](O)CN2CCc2ccccc2)O1)NCc1ccc(Oc2ccccc2)cc1 the assay gave activity change -15.69%.
With Cc1ccccc1S(=O)(=O)N1CCCCN2[C@H](CO)[C@@H](c3ccc(-c4cccnc4)cc3)[C@@H]2C1 the assay gave activity change -37.39%.
With C[C@H](CO)N1C[C@H](C)[C@H](CN(C)Cc2cccc(F)c2)OCc2ccccc2-c2c(n(C)c3ccccc23)C1=O the assay gave activity change -92.97%.
With COc1ccccc1S(=O)(=O)N1CC[C@@H]2[C@H](CO)Nc3ccc(-c4cccc(C#N)c4)cc3[C@@H]21 the assay gave activity change -48.75%.
With CCc1sc(N2[C@@H](C#N)[C@@H](c3ccccc3-c3cccc(F)c3)[C@@H]2CO)nc1C the assay gave activity change -16.51%.
With COc1ccc2c3c(n(C)c2c1)[C@@H](CO)N(C(=O)c1ccccc1)CC31CCN(C(=O)c2ccccc2)CC1 the assay gave activity change -9.434%.
With Cc1cccc(S(=O)(=O)N2CC[C@@H]3[C@@H](CO)Nc4ccc(C#Cc5cccnc5)cc4[C@@H]32)c1 the assay gave activity change -15.58%.
With OC[C@H]1[C@@H](c2ccc(/C=C/c3ccccc3)cc2)[C@H]2CN(Cc3ccncc3)CCCCN21 the assay gave activity change -31.67%.
With C/C=C/c1ccc([C@@H]2[C@H](CO)N3C(=O)CN(C(=O)Nc4cccc(OC)c4)C[C@@H]23)cc1 the assay gave activity change -25.21%.
With OC[C@@H]1[C@@H](c2ccc(C#Cc3ccccc3)cc2)[C@@H]2CN(CC3CCOCC3)CCCCN12 the assay gave activity change -3.8%.
With O=S(=O)(c1ccccc1)N1CCCCN2[C@H](CO)[C@H](c3ccc(-c4ccccc4F)cc3)[C@@H]2C1 the assay gave activity change -30.68%.
With O=C(C1CCCCC1)N1CC2(C1)[C@H](c1ccccc1)[C@H](CO)N2Cc1ccc(Cl)cc1 the assay gave activity change -31.1%.
With COc1cccc(-c2ccc3c(c2)[C@H]2[C@H](CCN2C(=O)c2ccc(F)cc2)[C@@H](CO)N3)c1 the assay gave activity change -53.46%.
With C[C@@H]1CN([C@H](C)CO)C(=O)c2c(c3ccccc3n2C)-c2ccccc2CO[C@H]1CN(C)S(=O)(=O)c1cccc(F)c1 the assay gave activity change -6.193%.
With O=C(C[C@H]1CC[C@@H]2[C@H](COC[C@H](O)CN2Cc2ccc(Cl)cc2)O1)NCc1cccc(F)c1 the assay gave activity change -3.841%.
With COc1cccc(S(=O)(=O)N(C)C[C@@H]2OCc3ccccc3-c3c(n(C)c4ccccc34)C(=O)N([C@@H](C)CO)C[C@@H]2C)c1 the assay gave activity change -66.58%.
With COc1ccccc1NC(=O)N[C@@H]1CC[C@@H](CC(=O)N2CCC(Cc3ccccc3)CC2)O[C@H]1CO the assay gave activity change -10.13%.
With C[C@H](NC(=O)C[C@@H]1CC[C@H](NC(=O)Cc2ccccn2)[C@@H](CO)O1)c1ccccc1 the assay gave activity change -7.055%.
With Cc1cccc(S(=O)(=O)N2C[C@@H]3N[C@H](C2)C3c2ccc(-c3cccc(C(=O)N(C)C)c3)cc2)c1 (stereo partly shown) the assay gave activity change -32.28%.
With CC(C)C#Cc1ccc([C@@H]2[C@H](CO)N3C(=O)CN(C(=O)C4CCCCC4)C[C@@H]23)cc1 the assay gave activity change -7.458%.
With O=C(C[C@H]1CC[C@H]2[C@@H](COC[C@H](O)CN2Cc2cccc(Cl)c2)O1)NCC1CCCCC1 the assay gave activity change -27.11%.
With C[C@@H]1CN([C@@H](C)CO)C(=O)c2c(c3ccccc3n2C)-c2ccccc2CO[C@H]1CN(C)Cc1ccc(C(F)(F)F)cc1 the assay gave activity change -5.528%.
With O=C(Nc1cc(F)ccc1F)N1C[C@@H]2[C@H](c3ccccc31)[C@H](CO)N2CC1CCCC1 the assay gave activity change -17.73%.
With CCCNC(=O)N1CC2(C1)[C@H](c1ccccc1)[C@@H](CO)N2Cc1cccc(Cl)c1 the assay gave activity change -5.485%.

The last 4 entries again:

SMILES,activity change (%)
O=C(C[C@H]1CC[C@H]2[C@@H](COC[C@H](O)CN2Cc2cccc(Cl)c2)O1)NCC1CCCCC1,-27.11
C[C@@H]1CN([C@@H](C)CO)C(=O)c2c(c3ccccc3n2C)-c2ccccc2CO[C@H]1CN(C)Cc1ccc(C(F)(F)F)cc1,-5.528
O=C(Nc1cc(F)ccc1F)N1C[C@@H]2[C@H](c3ccccc31)[C@H](CO)N2CC1CCCC1,-17.73
CCCNC(=O)N1CC2(C1)[C@H](c1ccccc1)[C@@H](CO)N2Cc1cccc(Cl)c1,-5.485